This note sets out measurements from ChEMBL document CHEMBL1146283, “Development of potent, orally active 1-substituted-3,4-dihydro-2-quinolone glycogen phosphorylase inhibitors” (Bioorg Med Chem Lett, 2007).

Usually Papp A→B stands for the apparent permeability from the apical to the basolateral side of a cell layer. Read a high Papp A→B as ready permeation. Usually Papp B→A stands for the apparent permeability from the basolateral to the apical side of a cell layer.

Data set [1] can be described thus: in vitro. The following applies: human, Caco-2.
Data set [2] is described as follows: in vitro. The following applies: human, Caco-2. This is another data set of the same source.

With `NC(=O)CN1C(=O)C(NC(=O)c2cc3cc(Cl)sc3[nH]2)Cc2ccccc21` (centres undefined), the apical-to-basolateral permeability (Papp A→B) in “in vitro [1]” was found to be 12 ×10⁻⁶ cm/s. The Papp B→A in the data set “in vitro [2]” was 7 ×10⁻⁶ cm/s.

In the data set “in vitro [1]”, `O=C(NC1Cc2ccccc2N(CC(CO)CO)C1=O)c1cc2cc(Cl)sc2[nH]1` (racemic) yielded a Papp A→B of 17 ×10⁻⁶ cm/s. This compound showed a Papp B→A in the data set “in vitro [2]” of 10 ×10⁻⁶ cm/s.
